This sample is rich in variants without activity.
B1: tRNA (parent)
chain: GUUCCGUUGGCGUAAUGGUAACGCGUCUCCCUCCUAAGGAGAAGACUGCGGGUUCGAGUCCCGUACGGAACG

Variants of: B1
Experiment: yeast fitness relative to wild type (ratio to wild type); higher = fitter; tRNA-Arg(CCU), competitive growth, 37 C, YPD
Method in brief: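 Start and end populations of a pooled competition were compared by 100-nucleotide paired-end sequencing of gene amplicons. The Saccharomyces cerevisiae strains carried tRNA-Arg(CCU) gene variants at the native genomic locus, synthesised with a 3% per-site mutation rate at 69 sites, and competed in YPD at 37°C for 24 hours in six parallel replicates. Darwinian fitness relative to wild type was based on the change in genotype frequencies. Genotypes required ≥ 100 starting reads, and estimates < 0.5 were set to 0.5.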

| Variant | yeast fitness |
| --- | --- |
| GGUCCGUUGGCGUAAUGGUAACGCGUCUCCCUCCUAAGGAGAAGACUGCGGGUUCGACUCCGGUACGGAACG | ≤ 0.5 |
| GUUCCGUUGGCAUAAUGGCAACGCGUCUUCCUCAUAAGGAGAAGACUGCGGGUUCGAGUCCCGUACGGAACG | ≤ 0.5 |
| GUUCCGUUGGCGUAAUGGUAGCGCGUGUCCCUCGUAAGGAGACGAGUGCGGGUUCGAGUCCCGUACGGAGCG | ≤ 0.5 |
| GUUCCGUCGGCGUAAUGGUAACGCGUCUUCCUCCUAAGGAGAAGACUGCCGGUUCGAGUCCCGUACGGAGCG | ≤ 0.5 |
| GUUCCGUUGGCGUAAUGGUAACGCGUCUCCCUCCUAAGGAGAAGACUGCAGGUUGGAGUCCCGUACAGAACG | ≤ 0.5 |
| GUUCGGUUGGCGUAAUGGUAACGUGUCUCCCUCCUAAGGAGAAGACUGCGGGUUCGAGUCCUGUACGGAACG | ≤ 0.5 |
| GUUCCGUAGGCGUAAUGAUAACGCGUCUCACACCGAAGGAGAAGACUGCGGGUUCGAGUCCCGUAAGGAACG | ≤ 0.5 |
| GUUACGUUGACGUAAUGGUAACGCGUCUUCCUUCUAAGGAGCAGACUGCGGGUUCGAGUCCCGUACGGAACG | ≤ 0.5 |
| GUUCCGUUGGUGUAAUGGUAACGCGUCUUCCUCCUAAGGAGAAGACUACGGGUUCGAGUCCCAUACGGAACG | ≤ 0.5 |
| GUUCCAUUGGCGUAAUGGUAACGCGUCUCCCUCCUAAGGAGAAGACUGCGGGUUCGUGUCCCGUACGUAGCG | ≤ 0.5 |
| GUUUCGUUGGCGUAAUGGUACCGCGUCUCAGCCCUAAGGACAAGACUGCGGGUUCGAGUCCCGUACGGAACG | ≤ 0.5 |
| GUUCCGUUGGCGUAAUGGUAACGCAUCUCCUUCCUAACGAGAAGACUGUGGGUUCGAGUCCUGUACGGUACG | ≤ 0.5 |
| GUUCCGUUGGCGUAACGGUAACGCGUCUCCCUCCUACGGAGAAGACUGCGGGUUCGAGUUCCGUACGGAACG | ≤ 0.5 |
| GUUCCGUUGGCGUAAUGGUAACGCGUCUCCCUCGUAAGCAGAAGACUGUGGGUUCGAGUCCCGUCCGGCACG | ≤ 0.5 |
| GUUACGUUGGCGUAAUGGUAACGCGUCUCCCCCCCAAGGAGAAGACUCCGGGUUUAAGUCCCGUACGGAGCG | ≤ 0.5 |
| GUUCCGUUGGCGUAAUGGUAACGCGUCUCCCUCCUAAGGAGUAGACUGCGGGUUCGAGUCUCGUACGCAACG | ≤ 0.5 |
| GUUCCGUAGGCGUAAUGGUAAUGCGUCUCCCUCCUAAGGAGAAGACUGCGGGUUCGAGUCCCGUACGGCCCG | 0.595 |
| GUUCCGUUGGCGUAAUGGUUACGCGUCUCCCUCCUAGGGAGAGGACUGCGGGUUCGAGUCCCGUACGAAACG | ≤ 0.5 |
| GUUCCGUUGGCGUAAUGGUAACGCGUCUCCAUCCUAAGGAGUUGACUGCGGGUUCGAGUCCCGUGCGAACCG | ≤ 0.5 |

| Variant | yeast fitness |
| --- | --- |
| GUUCCGUUGGCGUAAUGGUAACGCCUCUACCACCUAAGGAGAAGACUGCGGGUUCGAGUCCCGUACGGAACG | ≤ 0.5 |
| GUAUCGAUGGCGUAAUGGUAACGUGUCUCCCUCCUAAGGAGAAGACUGCGGGUUCGAGUCAGGUGCGGAACG | ≤ 0.5 |
| GUUCAGUUGGCGUAAUAGUAACGCGUCUCCCUCCUGAGGAGAAGACUGCGGGUUCGAGUCCCGUACGGAACG | ≤ 0.5 |
| GUUCCAUUGGCGUAAUGGUAACGCGUCUCCAUCCUACGGAGAAGACUGCGGGUUCGAGUCCCGUACGGAACG | ≤ 0.5 |
| GUUCCGUUGGCGUAAUGGUAACGCCUCUCCCUCCUAAGGAGAAGAAUGCGGGUUCGAGACACGUACGGAACG | ≤ 0.5 |
| GUUCCGUUGGCGUGAUGGUAACGCGUCUCCCACCUAAGAAGAAGACUGCGGGUACGAGUCCCGUACGGAACG | ≤ 0.5 |
| GUUCCGUUGGCGUAAUGGUAACGCGUCACCCUCCUUAGGAGAAGACUGUGGGUUCGAGUCCCGUACGGAACG | ≤ 0.5 |
| GUUUCGUUGGCGUAAUGGUAACGCGUCUCGCUCCUAAGGAGAAGACUGCGGGCUCGAGUAACGUAGGGAACG | ≤ 0.5 |
| GUUCCGUUGGCGUAAUGGUAACGCGUCUCCCUCCUAAGGAGAAGACUGAGGGUUCGAGUGCCGUACGGACCG | ≤ 0.5 |
| GUUCCGUUGGUGUAAUGAUUAGGCGUCUCCGUCCUAAGGAGAAGACUGCGGGUUCGAGUCCCGUACGGAACG | ≤ 0.5 |
| GUUCUGUUGGGGUAAUGGUAACGCGUCUCCCUCCUAAGGAGAAGACUGAGGGCUCGAGUCCCGUACGGAACG | ≤ 0.5 |
| GUUCGGUUCGCGUAAUGGUAACGCGUCUCCUUCCUAAGGAGAAGUCUGCGGGUUCCAGUCCCCUACCGAACG | ≤ 0.5 |
| GUUUCGGUGGCGUAAUGGUAACGCGUCUCCCUCGUAAGGAGAAGACUGAGGGUUCGAGUCCCGUACGGAACG | ≤ 0.5 |
| GUUCCGUUGGCCUAAUGGUAACGCGUCUCCUUCCUAAGGAGAAGACUGCGGGUUCGAGUCCGGUACGGAACG | 0.557 |
| GUUCCGUUGGCGUAAUGGUAACGAGUAACCCUCCUAAGGAGAAGACUGCGGGUUGGAGUCCCGUACGGAACG | ≤ 0.5 |
| GUUCCGUUGGCGUAAUGAUAACGCGUCUCCCUCCUAAGGAGAAGCCUGCGGGUUUGAGUCGCGUACGGAACG | ≤ 0.5 |
| GUUCCGUUGGCGUGAUGGUAACGCGUCUCCCUCCUAAGGAGAAGACUCCGGGUUCGAGUCCCGUACCGAACG | ≤ 0.5 |
| GUUCCGUUGGGGUAAUGGUAACGCGUCUCCCUCCUAAGGAGGAGACUGCGGGUUCGAGUCCGGUACGGAACG | ≤ 0.5 |
